{"source": "PubChem BioAssay AID590", "about": "(National Center for Advancing Translational Sciences (NCATS), 2007)", "note": "“And” between values parts separate entries of the source, which are not always exact repeats. Identical values can stand only once. The whole screen tested about 59,000 compounds, of which about 6,500 (11%) were called active. The shares of active, inactive and inconclusive entries below differ from those in the screen. Cut-off read from the data, not from the text of the source: active = max dye-equivalent concentration above about 10 nM; inconclusive = mostly about 1.1 nM to 9.6 nM; inactive = weaker than that.", "data": [{"experiment": "qHTS Assay for Spectroscopic Profiling in A350 Spectral Region", "settings": "Compound autofluorescence, 340/450 nm, Alexa 350 dye-equivalents; active compounds read high", "values": [{"smiles": "Cc1ccc(CNc2ccc3c(c2)ncn3C)cc1", "max dye-equivalent concentration": "inconclusive: 1.8e-09 M"}, {"smiles": "CC(C)(/C=N/O)/[N+]([O-])=C/c1ccco1", "max dye-equivalent concentration": "inconclusive: 3.6e-09 M"}, {"smiles": "COc1ccc(/C=C\\C(=O)Nc2ccccc2C(=O)O)cc1OC", "max dye-equivalent concentration": "inconclusive: 5.3e-09 M"}, {"smiles": "O=c1c(O)c(-c2ccccc2)oc2cc(O)cc(O)c12", "max dye-equivalent concentration": "inconclusive: 5.3e-09 M"}, {"smiles": "O=C(O)c1cc(=O)c2c(OCC(O)COc3cccc4oc(C(=O)O)cc(=O)c34)cccc2o1", "max dye-equivalent concentration": "inconclusive: 1.2e-09 M and inconclusive: 1.8e-09 M"}, {"smiles": "c1ccc(CNc2ncnc3ccc(-c4ccc5c(c4)OCO5)cc23)cc1", "max dye-equivalent concentration": "inactive"}, {"smiles": "CC(=O)C(C)Oc1ccc2c3c(c(=O)oc2c1C)CCCC3", "note": "(stereo unspecified)", "max dye-equivalent concentration": "active: 1.2e-08 M"}, {"smiles": "O=C(c1ccccc1)N1CCN(CC2CC=CCC2)CC1", "note": "(stereo unspecified)", "max dye-equivalent concentration": "inconclusive: 2.1e-09 M"}, {"smiles": "COc1cccc(C(=O)Nc2ncc3c(n2)CC(C)(C)CC3=O)c1", "max dye-equivalent concentration": "inconclusive: 7e-09 M"}, {"smiles": "CCOC(=O)c1c(C)nc(-c2ccccc2)nc1NC(=O)C(C)C", "max dye-equivalent concentration": "inconclusive: 2.2e-09 M"}, {"smiles": "O=C(CSc1ccc2nnc(-c3cccc(F)c3)n2n1)NCC1CCCO1", "note": "(stereo unspecified)", "max dye-equivalent concentration": "active: 1e-08 M"}, {"smiles": "Cn1c(SCC(=O)NC2CCCC2)nnc1-c1ccc(S(=O)(=O)N2CCOCC2)cc1", "max dye-equivalent concentration": "inactive"}, {"smiles": "CCOC(=O)c1cc2c(=O)n3ccccc3nc2n(Cc2ccccc2Cl)c1=N", "max dye-equivalent concentration": "active: 1.2e-07 M"}, {"smiles": "CCOc1ccccc1N/C=C/C(=O)C(C)(C)C", "max dye-equivalent concentration": "inconclusive: 6.6e-09 M"}, {"smiles": "CCOC(=O)c1cnn(-c2nc(SC)nc3sc4c(c23)CCC4)c1N", "max dye-equivalent concentration": "inconclusive: 1.1e-09 M"}, {"smiles": "Cc1nc(N=Nc2ccc(S(=O)(=O)O)cc2S(=O)(=O)O)c(COP(=O)(O)O)c(C=O)c1O", "max dye-equivalent concentration": "inactive"}, {"smiles": "CCOC(=O)c1c(C)nc2sccn12", "max dye-equivalent concentration": "inactive"}, {"smiles": "CC1=C(C(=O)Nc2ccccn2)C(c2ccc(F)cc2)n2ncnc2N1", "note": "(stereo unspecified)", "max dye-equivalent concentration": "inconclusive: 5.7e-09 M"}, {"smiles": "N#Cc1nc(-c2ccco2)oc1NCCCN1CCOCC1", "max dye-equivalent concentration": "inconclusive: 4.8e-09 M"}, {"smiles": "COc1cccc(Cn2c(=O)c(-c3ccc(F)cc3)nc3cnc(N4CCOCC4)nc32)c1", "max dye-equivalent concentration": "inconclusive: 3.5e-09 M"}, {"smiles": "N/C(=N\\O)c1cn([C@@H]2O[C@@H](CO)[C@H](O)[C@@H]2O)c2ncnc(NO)c12", "max dye-equivalent concentration": "inactive"}, {"smiles": "COc1cc(-c2nn3c(-c4cccnc4)nnc3s2)cc(OC)c1OC", "max dye-equivalent concentration": "inconclusive: 8.3e-09 M"}, {"smiles": "O=c1c(-c2ccc(F)cc2)nc2cnc(N3CCOCC3)nc2n1Cc1ccc(F)cc1", "max dye-equivalent concentration": "active: 2.6e-08 M"}, {"smiles": "N#Cc1nc(-c2ccc(Cl)cc2)oc1NCCc1ccccn1", "max dye-equivalent concentration": "inconclusive: 7.8e-09 M"}, {"smiles": "O=c1c2[nH]c3ccc(F)cc3c2ncn1CCN1CCOCC1", "max dye-equivalent concentration": "inconclusive: 1.2e-09 M"}, {"smiles": "O=C(COc1cc(Cl)ccc1Cl)Nc1nnc(CC(=O)N2CCOCC2)s1", "max dye-equivalent concentration": "inconclusive: 1.5e-09 M"}, {"smiles": "Cn1nc(-c2ccc(OCC(=O)NCC3CCCO3)cc2)c2ccccc2c1=O", "note": "(stereo unspecified)", "max dye-equivalent concentration": "inconclusive: 1.6e-09 M"}, {"smiles": "Cc1cc(OCC(=O)Nc2ccc3oc(-c4ccncc4)nc3c2)ccc1Cl", "max dye-equivalent concentration": "inconclusive: 6.5e-09 M"}, {"smiles": "COc1ccc(/C=N/c2nc3ccccc3n2C)cc1OC", "max dye-equivalent concentration": "inactive"}, {"smiles": "Cc1cc(=O)oc(C)c1C(=O)n1nc(C)c2c1C[C@@H]1[C@H]2C1(C)C", "max dye-equivalent concentration": "inconclusive: 1.5e-09 M"}, {"smiles": "CCSc1nnc(CNc2ccc(F)cc2)n1CC1CCCO1", "note": "(stereo unspecified)", "max dye-equivalent concentration": "inconclusive: 1.2e-09 M"}, {"smiles": "OC1CC(c2ccco2)NC2(CCCCC2)C1", "note": "(stereo unspecified)", "max dye-equivalent concentration": "active: 1.4e-08 M"}, {"smiles": "O=S(=O)(Nc1cccnc1)c1ccc(Cl)c(C(F)(F)F)c1", "max dye-equivalent concentration": "inactive"}, {"smiles": "COc1cccc(C(=O)N(Cc2cc3cc(C)ccc3[nH]c2=O)C(C)C)c1", "max dye-equivalent concentration": "inconclusive: 4.9e-09 M"}, {"smiles": "CCOc1nc(-c2ccc(C)cc2)ccc1-c1noc(-c2cccnc2)n1", "max dye-equivalent concentration": "inconclusive: 7.3e-09 M"}, {"smiles": "CCOC(=O)N1CCC(Nc2ncnc3c2cnn3-c2ccc(Cl)cc2)CC1", "max dye-equivalent concentration": "inactive"}, {"smiles": "CS(=O)(=O)Nc1cccc(-c2nc(-n3ccnc3)c3ccccc3n2)c1", "max dye-equivalent concentration": "inactive"}, {"smiles": "Cc1noc(C)c1-c1ccc2ncnc(Nc3ccccc3)c2c1", "max dye-equivalent concentration": "inactive"}, {"smiles": "CCCCC(c1nnnn1CCOC)N1CCN(c2cccc(OC)c2)CC1", "note": "(stereo unspecified)", "max dye-equivalent concentration": "inactive"}, {"smiles": "CCc1cc2c(NCC3CCCO3)ncnc2s1", "note": "(stereo unspecified)", "max dye-equivalent concentration": "inconclusive: 4.6e-09 M"}, {"smiles": "Cc1ccc(S(=O)(=O)NC(=O)NCc2ccccn2)cc1", "max dye-equivalent concentration": "inconclusive: 1.2e-09 M"}, {"smiles": "COC(=O)CSc1cc(C(=O)c2nccn2C)c2ccccc2n1", "max dye-equivalent concentration": "inconclusive: 2.5e-09 M"}, {"smiles": "Cc1cc(C)c(S(N)(=O)=O)c(C)c1-n1cnnn1", "max dye-equivalent concentration": "inactive"}, {"smiles": "CC(C)(CO[C@H]1C[C@H]2CC[C@@]1(C)C2(C)C)[N+](=O)[O-]", "max dye-equivalent concentration": "inactive"}, {"smiles": "O=C(c1csnn1)N1CCC2(CCCN(c3ccccc3)C2)CC1", "max dye-equivalent concentration": "active: 4.6e-08 M"}, {"smiles": "COC(=O)c1oc2ccc(Cl)cc2c1NC(C)=O", "max dye-equivalent concentration": "inconclusive: 3.1e-09 M"}]}]}
